Source: paper PMC9246774, “Construction and Functional Evaluation of a Three-Dimensional Blood–Brain Barrier Model Equipped With Human Induced Pluripotent Stem Cell-Derived Brain Microvascular Endothelial Cells” (Pharmaceutical Research, 2022)

Test: Permeability experiments in the 3D-BBB system (hiPS-BMECs on OrganoPlate 3-lane)
Conditions: human
Method: The 3D-BBB system using the OrganoPlate® 3-lane plate was constructed with some modifications to the protocol published by MIMETAS. During the differentiation of hiPS-BMECs, to separate the capillary side from the brain side, extracellular matrix hydrogel composed of 4 mg/mL collagen I (Cultrex 3D Matrix Rat Collagen-I, 5 mg/mL, AMSbio), 100 mM HEPES, and 3.7 mg/mL NaHCO3 was dispensed into the middle lane. The plate was incubated at 37°C for 15 min to polymerize collagen I. After incubation, HBSS (+) without phenol red (Fujifilm Wako) was added to the gel channel to prevent the gel from drying out. […] The suspension was injected into capillary lanes precoated with fibronectin/collagen IV solution (PharmCo-Cell). After seeding the cells, the plate was incubated for 4 h at a tilt to allow the cells to adhere to the gel. […]
Permeability experiments were performed on day 10, at 48 h after seeding hiPS-BMECs on the plate. […] In all permeability experiments, the amount of lucifer yellow transported through the paracellular pathway to the receiver side was measured with a SpectraMax i3x (Molecular Devices, San Jose, CA) as a measure of cell-to-cell tightness. […] The apparent permeability coefficient (Papp) was calculated as follows: Papp=(dQ/dt)/D0×S
where dQ/dt, D0, and S are the transport velocity of the test drugs, the initial concentration of test drugs on the donor side, and the surface area of the extracellular matrix hydrogel in the middle lane, respectively. The efflux ratio value was calculated from the Papp value in the capillary-to-brain (A-to-B) and brain-to-capillary (B-to-A) directions as follows: Effluxratio=Papp,B-to-A/Papp,A-to-B.
The test drugs were quantified using a high-performance liquid chromatography (HPLC)-tandem mass spectrometry system composed of a Nexera-XR (Shimazu, Kyoto, Japan) HPLC system connected to a Qtrap4500 (AB Sciex, Foster City, CA, USA) mass spectrometer with an electrospray ionization interface. […]

Papp A→B at 4 h (pH 7.4): 0.822 ×10⁻⁶ cm/s | Papp B→A at 4 h (pH 7.4): 0.633 ×10⁻⁶ cm/s | efflux ratio at 4 h (pH 7.4, Efflux ratio (B-to-A/A-to-B), Control): 0.771
SMILES: CC(C)NCC(O)COc1ccc(CC(N)=O)cc1 (stereo not drawn) [Atenolol]
